From patent publication US12053456B2, “Pharmaceutical compositions for combination therapy” (GENFIT, priority 2017, dated 2024)
For at least one compound, name, drawing or mass did not settle the structure.

System: fibrosing NASH-model of mice fed a CDAA+1% cholesterol diet
Test: Hepatic collagen content in chronic CDAA+1% cholesterol model of fibrosing NASH (12 weeks)
Type: in vivo, C57Bl/6J mice
Conditions: CDAA+1% cholesterol diet supplemented with compound, versus CDAA+1% chol diet

Compound: CC(=O)Oc1ccccc1C(=O)Nc1ncc([N+](=O)[O-])s1 [NTZ, [2-[(5-nitro-1,3-thiazol-2-yl)carbamoyl]phenyl]ethanoate]
- hepatic collagen content: decreases the hepatic collagen content
